Measurements published in PubChem BioAssay AID2685 (National Center for Advancing Translational Sciences (NCATS), 2010).
The list shows a part of the results. The main result of the screen is listed elsewhere. These columns were measured beside it and carry no call. The list favours compounds with an active or inconclusive main result. Words in brackets tell the shape of the fitted curve; partial curves, single points and poor fits give uncertain potencies.

Assay: qHTS Assay for Lipid Storage Modulators in Drosophila S3 Cells;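 as to cell number change: cells counted by Cell Tracker Red CMTPX staining in the red channel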
Settings: BODIPY lipid droplet fluorescence, 18-24 h; for cell number change: measured here: cell count max response, cells fed with added oleic acid
Summary of the method: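 Drosophila S3 cells got compounds at several concentrations plus oleic acid (400 uM solution). Laser-scanning cytometry with 488 nm excitation read lipid droplets at 500-530 nm and cells at 575-640 nm. Percent activity was relative to 20 uM Triacsin C.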

[1] = measured here: lipid fluorescence (Fed channel) AC50, cells fed with added oleic acid
[2] = measured here: cell number channel AC50, cells fed with added oleic acid

CNS(=O)(=O)c1cccc(C(=O)OCC(=O)N2c3ccccc3CC2C)c1 (stereo not given)
cell number change: -0.231% | AC50 [1]: 29.1 µM [rising, single point]

O=S(=O)(Nc1ccc(-n2cccc2)cc1)c1ccc(Cl)c(Cl)c1
cell number change: -64.1%

CC(=O)O[C@]1(C(C)=O)CCC2C3CCC4=C/C(=N/OCC(=O)O)CC[C@]4(C)C3CC[C@@]21C (stereo not given in full)
cell number change: 18.1%

COc1cc(C)ccc1S(=O)(=O)NC1CC(C)(C)NC(C)(C)C1
cell number change: -6.67%

CCOC(=O)c1ccc(S(=O)(=O)N2CCC(C(=O)O)CC2)cc1
cell number change: 8.56% | AC50 [1]: 0.291 µM [falling, full curve, poor fit]

CCOC(=O)c1c(NS(=O)(=O)Cc2ccccc2)sc2c1CCCC2
cell number change: 87.9% | AC50 [2]: 14.6 µM [rising, partial curve]

CN(C)CCN(C(=O)c1ccc2ccccc2c1)c1nc2ccc(F)cc2s1
cell number change: -7.95% | AC50 [2]: 0.13 µM [rising, full curve, poor fit] | AC50 [1]: 0.58 µM [rising, single point]

Cc1ccc(NC(=O)CCc2ccc(S(=O)(=O)N3CCOCC3)cc2)c(C)c1
AC50 [1]: 0.461 µM [rising, partial curve, poor fit]

CCOC(=O)c1c(NC(=O)Cn2nnc3ccccc32)sc2c1CCC(C)C2 (stereo not given)
cell number change: 8.96% | AC50 [1]: 0.259 µM [rising, full curve]

Cc1cc(C)c(S(=O)(=O)NCCc2ccccc2)c(C)c1
cell number change: -33.4% | AC50 [2]: 16.4 µM [falling, single point] | AC50 [1]: 18.4 µM [falling, single point]

c1ccc(C(c2ccccc2)c2noc(CN3CCC(c4ccncc4)CC3)n2)cc1
cell number change: 12.5% | AC50 [1]: 2.06 µM [rising, full curve, poor fit]

COc1cccc(-c2cc(C(=O)Nc3nc4ccccc4s3)c3ccccc3n2)c1
cell number change: -24.9% | AC50 [1]: 10.3 µM [falling, partial curve]

COc1cccc(NC(=O)CCN2C(=O)C3CC=CCC3C2=O)c1 (stereo not given)
cell number change: 18.8% | AC50 [2]: 0.092 µM [rising, full curve, poor fit] | AC50 [1]: 1.64 µM [rising, partial curve]

CC(C)CN(C(=O)c1cccs1)C1CCS(=O)(=O)C1 (stereo not given)
cell number change: -2.45% | AC50 [1]: 29.1 µM [rising, single point]

Cc1ccc(C)c(NC(=O)C2CCCN(S(=O)(=O)c3cccnc3)C2)c1 (stereo not given)
cell number change: 75.8% | AC50 [2]: 14.6 µM [rising, partial curve, poor fit] | AC50 [1]: 29.1 µM [rising, partial curve]

CCOC(=O)c1nnn(-c2nonc2N)c1COc1ccccc1
cell number change: 13.1% | AC50 [1]: 0.461 µM [rising, single point]

CCOc1ccc(-n2c(SCC(=O)NC)nnc2-c2ccco2)cc1
cell number change: 1.05%

CCOC(=O)c1nn(-c2cccc(C)c2)cc1C(=O)c1ccccc1
cell number change: 0.738% | AC50 [2]: 0.517 µM [rising, single point] | AC50 [1]: 29.1 µM [rising, single point]

CS(=O)(=O)N1CCC(Oc2ccccc2C(=O)N2CCCCC2CO)CC1 (stereo not given)
AC50 [1]: 2.06 µM [falling, partial curve]

Cc1nc2c(C(=O)NCCC(C)C)c[nH]n2c(=O)c1Cl
cell number change: 13% | AC50 [1]: 6.51 µM [falling, single point]

CN(c1ccccc1)C1CCCCC1NS(=O)(=O)c1ccc(Cl)cc1 (stereo not given)
cell number change: -0.853% | AC50 [1]: 1.16 µM [falling, single point]

CC(C)(C)c1ccccc1OCC(=O)NCCCn1ccnc1
cell number change: 4.2% | AC50 [1]: 29.1 µM [rising, single point]

O=C(NCc1cccc2ccccc12)c1cccs1
cell number change: 5.43% | AC50 [2]: 0.00461 µM [falling, full curve, poor fit]

CC(C)(C)c1ccc(C(=O)N2CCN(CCNC(=O)C(=O)NCc3ccc(Cl)cc3)CC2)cc1
cell number change: -45.9% | AC50 [2]: 25.9 µM [falling, partial curve] | AC50 [1]: 2.91 µM [rising, partial curve, poor fit]

Cc1ccc(C(=O)NCCc2ccccc2)cc1S(=O)(=O)N1CCOCC1
cell number change: -16.8%

CCOc1ccc(N(CC(=O)Nc2ccc(CC)cc2)S(=O)(=O)c2c(C)[nH]c(=O)[nH]c2=O)cc1
AC50 [1]: 0.116 µM [rising, single point]

O=C(CSc1nnc(NC(=O)c2ccccc2F)s1)Nc1ccccc1F
cell number change: -11.7% | AC50 [2]: 0.82 µM [falling, single point]

COc1ccc(N2CCN(C3CCCN(C(=O)CSC)C3)CC2)cc1 (stereo not given)
cell number change: 12.6% | AC50 [1]: 29.1 µM [rising, single point]

COc1cc(/C=N/NC(=O)c2cc[n+]([O-])cc2)cc(OC)c1OC
cell number change: 1.01% | AC50 [1]: 6.51 µM [rising, single point]

c1ccc(-c2cc(-c3ccc(N4CCOCC4)cc3)nc3ccccc23)cc1
cell number change: -6.68%

Cc1cccc2c(C(=O)O)c3c(nc12)CCCCC3
AC50 [1]: 20.6 µM [falling, partial curve]

COc1cc(OC)c(C2=NOC(C(=O)NCc3cccnc3)C2)cc1Cl (stereo not given)
cell number change: -2.35% | AC50 [1]: 0.00517 µM [rising, full curve, poor fit]

CCOc1ccc(NC(=O)Nc2cc(C)ccc2F)cc1
AC50 [1]: 0.146 µM [falling, full curve, poor fit]

COc1ccccc1COc1ccc2c(C)c(CC(=O)O)c(=O)oc2c1C
cell number change: -1.39% | AC50 [1]: 6.51 µM [falling, single point]

CCCCC1S/C(=N/N=C/c2ccco2)NC1=O (stereo not given)
cell number change: -1.37% | AC50 [1]: 29.1 µM [rising, single point]

NNC(=O)COc1cccc(Oc2ccccc2)c1
cell number change: 23.3% | AC50 [1]: 4.11 µM [rising, full curve]

Cc1ccc2c(c1)c1ncnc(N3CCN(c4ccccc4)CC3)c1n2C
cell number change: -17.7% | AC50 [1]: 0.0731 µM [rising, full curve]

COCCN(CC(=O)Nc1ccccc1C(F)(F)F)C(=O)/C=C/c1cc(Cl)c2c(c1)OCO2
cell number change: -1.34%

O=C(C[n+]1cc(-c2ccc(Cl)c(Cl)c2)n2c1CCC2)c1cccs1
cell number change: 10.2%

Cc1ccc(C(=O)NCC(=O)OCC(=O)Nc2ccccc2C#N)s1
cell number change: -13.8% | AC50 [1]: 0.366 µM [falling, full curve, poor fit]

CCOC(=O)CCCCC(=O)c1[nH]c(=O)[nH]c1CN1CCOCC1
cell number change: 3.64%

COc1ccc(-c2cc(=O)oc3c(C)c(OC(C)C(=O)NCc4ccccn4)ccc23)cc1 (stereo not given)
cell number change: 37.1% | AC50 [2]: 29.1 µM [rising, single point] | AC50 [1]: 29.1 µM [falling, single point]

N/C(=N\OC(=O)c1cccc(Cl)c1)c1ccccn1
cell number change: 2.36%

COc1ccc(CC(=O)n2[nH]c(=O)ccc2=O)cc1OC
cell number change: -60.9% | AC50 [2]: 23.1 µM [falling, partial curve]

Cc1cc2ccccc2n2c(SCC(=O)Nc3ccc(S(=O)(=O)N4CCCCC4)cc3)nnc12
cell number change: -16.4%

CCC(=NC)C1=C(O)CC(c2ccccc2)CC1=O (stereo not given)
cell number change: 0.338%

O=S(=O)(c1ccccc1)N1CCC(N2CCN(c3ccccc3)CC2)CC1
cell number change: 9.68%

CC(=O)c1ccc(N2CCN(S(=O)(=O)c3cc4c(cc3C)NC(=O)CO4)CC2)cc1
AC50 [1]: 29.1 µM [falling, single point]

O=C(/C=C(\O)c1ccccc1)C(=O)NNC(=O)c1ccccc1[N+](=O)[O-]
cell number change: -44.7% | AC50 [2]: 10.3 µM [falling, partial curve]

O=C(CSc1nc2c(cnn2-c2cccc(Cl)c2)c(=O)[nH]1)NCCC1=CCCCC1
cell number change: -32.6% | AC50 [2]: 0.651 µM [falling, full curve, poor fit] | AC50 [1]: 0.82 µM [falling, full curve, poor fit]

CC(C)NC(=O)C1COc2ccccc2O1 (stereo not given)
cell number change: 15.2% | AC50 [1]: 32.6 µM [rising, single point]

CCC(CC)C(=O)N1CCN(Cc2ccc3c(c2)OCO3)CC1
cell number change: 39.2% | AC50 [2]: 7.31 µM [rising, partial curve] | AC50 [1]: 16.4 µM [rising, partial curve]

COc1ccccc1CNC(=O)c1ccc2nc3[nH]c4ccccc4c3nc2c1
cell number change: -50.7% | AC50 [2]: 29.1 µM [falling, single point] | AC50 [1]: 18.4 µM [falling, single point]

COc1ccccc1CNC(=O)c1cc2ccccc2o1
cell number change: 18.5% | AC50 [1]: 3.26 µM [rising, full curve]

O=C(CN1CCN(Cc2cccc(F)c2)CC1)Nc1ccccc1F
AC50 [1]: 6.51 µM [rising, partial curve, poor fit]

Cc1ccccc1-c1nnn(CC(=O)N2CCN(S(=O)(=O)c3ccc(Cl)cc3)CC2)n1
cell number change: 83.6% | AC50 [2]: 6.51 µM [rising, partial curve] | AC50 [1]: 1.84 µM [rising, partial curve]

C/C(=N\Nc1ccccn1)c1ccc(C#N)cc1
AC50 [2]: 4.11 µM [rising, partial curve, poor fit]

CCOC(=O)/C=C/c1ccc2oc3ccccc3c(=O)c2c1
cell number change: 15.2%

Cc1ccc(S(=O)(=O)N2CCC(C(=O)N3CCC3)CC2)cc1
cell number change: 11.9% | AC50 [1]: 29.1 µM [falling, single point]

Cc1ccn(C(=O)c2cc3cc(Cl)ccc3oc2=O)n1
cell number change: 29.8% | AC50 [1]: 0.00517 µM [falling, full curve, poor fit]

CC(C)(C)c1ccccc1NC(=O)Cn1cnc2cc([N+](=O)[O-])ccc2c1=O
cell number change: -9.78% | AC50 [1]: 0.146 µM [falling, full curve, poor fit]

O=C(CCc1ccccc1)c1c(O)cc(O)cc1O
cell number change: -52.1% | AC50 [2]: 29.1 µM [falling, single point]

COc1cccc(C(=O)NC(C)c2cccc3ccccc23)c1OC (stereo not given)
cell number change: 27.8% | AC50 [1]: 29.1 µM [rising, single point]
